Assay results from the supplement of paper PMC10849652.
Some of the results follow. Residues, ends and D or L forms follow the SMILES beside them. *: point of attachment. Cbz = O=C(OCc1ccccc1)*

Sequences of proteins named here, by UniProt entry; tags and fusion partners are left off. A change or cut given only in a name is not applied to a line headed by its entry.
UniProt P52732: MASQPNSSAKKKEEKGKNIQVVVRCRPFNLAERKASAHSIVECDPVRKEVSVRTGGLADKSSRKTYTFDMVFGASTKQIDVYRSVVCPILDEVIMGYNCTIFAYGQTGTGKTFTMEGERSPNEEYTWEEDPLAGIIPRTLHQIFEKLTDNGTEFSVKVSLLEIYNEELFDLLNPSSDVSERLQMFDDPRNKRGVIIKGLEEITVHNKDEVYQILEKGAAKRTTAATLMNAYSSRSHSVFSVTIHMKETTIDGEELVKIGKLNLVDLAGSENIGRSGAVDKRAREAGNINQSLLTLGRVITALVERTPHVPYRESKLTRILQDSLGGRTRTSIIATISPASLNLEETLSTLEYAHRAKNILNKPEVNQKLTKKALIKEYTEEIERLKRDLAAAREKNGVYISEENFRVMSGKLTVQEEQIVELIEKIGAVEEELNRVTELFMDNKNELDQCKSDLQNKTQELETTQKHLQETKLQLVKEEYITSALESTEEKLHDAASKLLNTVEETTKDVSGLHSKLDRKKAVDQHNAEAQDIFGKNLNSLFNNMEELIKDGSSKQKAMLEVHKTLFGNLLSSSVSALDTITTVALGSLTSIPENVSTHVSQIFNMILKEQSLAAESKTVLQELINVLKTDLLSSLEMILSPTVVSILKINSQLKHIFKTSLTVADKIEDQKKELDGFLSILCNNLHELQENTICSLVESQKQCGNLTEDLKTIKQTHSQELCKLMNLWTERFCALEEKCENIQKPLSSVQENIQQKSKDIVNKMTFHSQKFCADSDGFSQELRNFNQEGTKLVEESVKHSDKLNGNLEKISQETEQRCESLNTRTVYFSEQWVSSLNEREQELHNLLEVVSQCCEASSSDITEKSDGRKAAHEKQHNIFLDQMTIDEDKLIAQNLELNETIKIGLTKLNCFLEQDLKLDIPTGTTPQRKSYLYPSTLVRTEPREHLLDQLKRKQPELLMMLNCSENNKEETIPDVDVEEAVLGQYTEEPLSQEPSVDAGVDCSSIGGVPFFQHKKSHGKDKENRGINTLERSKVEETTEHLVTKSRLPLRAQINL
UniProt Q9NS87: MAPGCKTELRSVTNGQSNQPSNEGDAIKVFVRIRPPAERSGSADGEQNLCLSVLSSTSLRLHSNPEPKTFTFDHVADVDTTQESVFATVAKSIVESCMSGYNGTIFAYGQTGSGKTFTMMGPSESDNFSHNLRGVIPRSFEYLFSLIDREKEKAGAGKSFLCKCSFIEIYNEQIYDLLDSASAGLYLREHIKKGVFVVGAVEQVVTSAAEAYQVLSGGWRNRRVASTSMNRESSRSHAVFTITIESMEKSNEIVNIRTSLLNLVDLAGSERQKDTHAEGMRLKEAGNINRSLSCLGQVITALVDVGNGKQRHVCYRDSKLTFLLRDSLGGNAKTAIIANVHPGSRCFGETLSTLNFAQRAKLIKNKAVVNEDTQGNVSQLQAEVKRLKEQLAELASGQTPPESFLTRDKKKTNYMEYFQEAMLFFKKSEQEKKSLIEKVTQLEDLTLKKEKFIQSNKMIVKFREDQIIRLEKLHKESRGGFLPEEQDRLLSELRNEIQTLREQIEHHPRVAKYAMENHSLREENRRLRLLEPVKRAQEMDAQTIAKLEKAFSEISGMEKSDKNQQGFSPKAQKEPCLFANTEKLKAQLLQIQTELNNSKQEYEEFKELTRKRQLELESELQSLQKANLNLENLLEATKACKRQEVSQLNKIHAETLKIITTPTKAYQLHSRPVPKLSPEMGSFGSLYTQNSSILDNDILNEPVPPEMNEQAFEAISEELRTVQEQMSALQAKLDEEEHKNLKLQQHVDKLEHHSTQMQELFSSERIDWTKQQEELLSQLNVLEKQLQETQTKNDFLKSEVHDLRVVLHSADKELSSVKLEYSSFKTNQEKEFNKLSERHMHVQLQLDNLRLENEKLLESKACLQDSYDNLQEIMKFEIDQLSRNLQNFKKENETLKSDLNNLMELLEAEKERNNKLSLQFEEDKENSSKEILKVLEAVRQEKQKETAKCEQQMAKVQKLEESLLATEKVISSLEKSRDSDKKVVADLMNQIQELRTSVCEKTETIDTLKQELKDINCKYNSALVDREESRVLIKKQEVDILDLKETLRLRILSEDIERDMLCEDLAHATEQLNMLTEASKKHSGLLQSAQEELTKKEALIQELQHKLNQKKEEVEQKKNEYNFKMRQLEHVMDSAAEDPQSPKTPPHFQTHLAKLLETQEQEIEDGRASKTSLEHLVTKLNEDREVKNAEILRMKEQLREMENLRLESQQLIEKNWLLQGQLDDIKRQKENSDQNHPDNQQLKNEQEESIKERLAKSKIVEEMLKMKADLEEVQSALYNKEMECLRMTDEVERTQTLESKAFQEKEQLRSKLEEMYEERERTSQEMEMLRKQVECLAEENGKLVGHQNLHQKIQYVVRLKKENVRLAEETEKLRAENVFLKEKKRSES
UniProt Q9Y496, whole entry, looked up: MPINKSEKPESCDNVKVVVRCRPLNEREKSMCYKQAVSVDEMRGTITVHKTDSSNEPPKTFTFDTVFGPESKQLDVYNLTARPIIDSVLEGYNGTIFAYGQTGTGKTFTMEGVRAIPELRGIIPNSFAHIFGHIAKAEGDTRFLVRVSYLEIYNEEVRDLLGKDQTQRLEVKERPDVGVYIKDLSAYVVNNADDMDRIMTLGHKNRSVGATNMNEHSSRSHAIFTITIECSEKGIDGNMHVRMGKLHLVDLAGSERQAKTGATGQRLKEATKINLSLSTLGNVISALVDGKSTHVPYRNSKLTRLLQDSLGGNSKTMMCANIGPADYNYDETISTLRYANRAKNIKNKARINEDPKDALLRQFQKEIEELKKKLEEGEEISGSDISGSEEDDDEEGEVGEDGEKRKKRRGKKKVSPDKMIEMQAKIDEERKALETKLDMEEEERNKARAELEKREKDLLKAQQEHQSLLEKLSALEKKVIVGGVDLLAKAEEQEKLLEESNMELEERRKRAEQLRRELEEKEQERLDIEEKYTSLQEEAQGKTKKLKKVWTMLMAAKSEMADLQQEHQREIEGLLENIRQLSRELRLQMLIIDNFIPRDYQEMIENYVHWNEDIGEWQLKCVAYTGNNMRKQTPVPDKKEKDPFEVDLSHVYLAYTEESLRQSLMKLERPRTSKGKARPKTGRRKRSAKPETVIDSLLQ
UniProt Q96AT1: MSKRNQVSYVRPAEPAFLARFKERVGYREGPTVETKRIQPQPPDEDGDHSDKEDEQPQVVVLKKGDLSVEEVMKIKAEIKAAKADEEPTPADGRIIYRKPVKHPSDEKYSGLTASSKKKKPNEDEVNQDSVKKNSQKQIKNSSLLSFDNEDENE
UniProt Q9Y6Y0: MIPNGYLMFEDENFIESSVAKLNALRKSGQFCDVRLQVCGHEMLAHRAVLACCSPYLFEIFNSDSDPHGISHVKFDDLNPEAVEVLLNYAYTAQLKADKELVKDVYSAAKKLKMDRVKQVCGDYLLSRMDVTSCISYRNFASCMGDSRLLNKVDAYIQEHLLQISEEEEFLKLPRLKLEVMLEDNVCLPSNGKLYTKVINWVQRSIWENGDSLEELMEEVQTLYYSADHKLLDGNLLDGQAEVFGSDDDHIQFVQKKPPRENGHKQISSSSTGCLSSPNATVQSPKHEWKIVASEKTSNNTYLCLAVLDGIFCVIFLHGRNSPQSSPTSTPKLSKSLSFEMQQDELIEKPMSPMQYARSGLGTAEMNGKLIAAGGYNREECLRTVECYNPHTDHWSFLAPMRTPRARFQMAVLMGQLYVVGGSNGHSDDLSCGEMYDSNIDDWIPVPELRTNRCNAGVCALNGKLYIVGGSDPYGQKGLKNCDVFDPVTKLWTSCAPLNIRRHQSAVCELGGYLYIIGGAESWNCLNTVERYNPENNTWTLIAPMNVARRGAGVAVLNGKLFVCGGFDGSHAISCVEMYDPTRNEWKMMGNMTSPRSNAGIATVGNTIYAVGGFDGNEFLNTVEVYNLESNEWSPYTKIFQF
UniProt P23276: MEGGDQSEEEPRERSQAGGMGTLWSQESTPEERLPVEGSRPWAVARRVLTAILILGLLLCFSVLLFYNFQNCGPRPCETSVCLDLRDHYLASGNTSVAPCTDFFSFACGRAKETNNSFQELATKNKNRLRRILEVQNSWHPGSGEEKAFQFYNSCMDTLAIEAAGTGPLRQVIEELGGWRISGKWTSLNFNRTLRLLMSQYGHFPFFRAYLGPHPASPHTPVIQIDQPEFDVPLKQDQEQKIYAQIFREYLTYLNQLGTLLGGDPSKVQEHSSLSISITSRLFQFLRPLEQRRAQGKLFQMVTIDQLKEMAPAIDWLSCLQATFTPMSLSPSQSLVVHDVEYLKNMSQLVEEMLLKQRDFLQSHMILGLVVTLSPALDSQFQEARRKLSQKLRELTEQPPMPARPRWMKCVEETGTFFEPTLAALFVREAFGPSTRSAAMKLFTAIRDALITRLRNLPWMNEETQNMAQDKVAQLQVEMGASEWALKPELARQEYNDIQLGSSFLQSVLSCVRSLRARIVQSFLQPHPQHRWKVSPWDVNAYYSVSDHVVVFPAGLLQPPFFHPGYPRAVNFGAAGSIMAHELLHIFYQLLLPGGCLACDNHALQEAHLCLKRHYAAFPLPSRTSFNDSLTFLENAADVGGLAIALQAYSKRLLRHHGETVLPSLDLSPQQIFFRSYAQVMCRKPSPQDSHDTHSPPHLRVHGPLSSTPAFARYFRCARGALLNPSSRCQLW
UniProt Q9H3F6: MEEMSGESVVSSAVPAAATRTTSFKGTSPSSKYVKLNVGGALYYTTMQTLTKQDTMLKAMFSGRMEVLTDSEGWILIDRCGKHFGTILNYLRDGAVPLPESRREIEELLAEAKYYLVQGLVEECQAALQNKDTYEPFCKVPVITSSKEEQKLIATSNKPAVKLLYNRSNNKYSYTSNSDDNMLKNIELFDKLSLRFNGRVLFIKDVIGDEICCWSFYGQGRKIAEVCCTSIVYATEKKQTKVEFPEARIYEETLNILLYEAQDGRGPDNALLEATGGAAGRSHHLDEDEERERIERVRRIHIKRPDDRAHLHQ
UniProt Q14681: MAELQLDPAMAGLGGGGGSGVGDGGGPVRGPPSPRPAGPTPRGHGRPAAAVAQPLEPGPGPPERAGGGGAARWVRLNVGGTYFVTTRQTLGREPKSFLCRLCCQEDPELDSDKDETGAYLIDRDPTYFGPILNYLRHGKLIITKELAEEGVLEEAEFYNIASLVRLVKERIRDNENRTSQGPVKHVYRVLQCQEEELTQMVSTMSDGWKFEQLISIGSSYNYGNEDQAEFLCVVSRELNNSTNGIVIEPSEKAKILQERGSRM
UniProt Q674X7: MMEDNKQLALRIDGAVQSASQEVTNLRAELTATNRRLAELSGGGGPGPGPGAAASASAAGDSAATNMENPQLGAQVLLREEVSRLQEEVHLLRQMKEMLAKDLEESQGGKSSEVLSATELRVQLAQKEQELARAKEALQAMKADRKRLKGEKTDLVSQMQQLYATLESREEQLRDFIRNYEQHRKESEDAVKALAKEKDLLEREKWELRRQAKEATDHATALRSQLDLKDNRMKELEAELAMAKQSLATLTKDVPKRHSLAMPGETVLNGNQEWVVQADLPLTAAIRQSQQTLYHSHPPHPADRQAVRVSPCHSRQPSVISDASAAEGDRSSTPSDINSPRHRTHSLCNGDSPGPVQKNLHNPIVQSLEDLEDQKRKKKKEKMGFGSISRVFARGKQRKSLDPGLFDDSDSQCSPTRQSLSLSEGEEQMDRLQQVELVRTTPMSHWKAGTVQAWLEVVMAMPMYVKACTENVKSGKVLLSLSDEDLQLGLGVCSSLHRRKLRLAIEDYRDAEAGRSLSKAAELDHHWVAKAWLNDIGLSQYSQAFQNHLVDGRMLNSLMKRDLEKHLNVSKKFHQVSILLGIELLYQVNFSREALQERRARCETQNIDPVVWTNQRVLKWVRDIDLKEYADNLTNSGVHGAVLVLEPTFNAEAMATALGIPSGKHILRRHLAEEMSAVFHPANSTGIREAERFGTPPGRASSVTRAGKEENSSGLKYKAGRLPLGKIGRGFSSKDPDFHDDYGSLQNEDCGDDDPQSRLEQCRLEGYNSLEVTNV

How the values were obtained:
Test in all cases: log2 fold change, soluble protein after heating vs DMSO (PISA); higher = thermal stabilisation; K562 cells, 10 uM, 30 min; active = over 0.2 and 3.5 SD of the protein, either way, in both replicates (recomputed)
[1] = compound: C#Cc1cccc(Nc2ncnc3cc(OCCOC)c(OCCOC)cc23)c1 [erlotinib]
In short: (§1)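 K562 cells at 2×10^6 cells/mL were exposed to 10 μM compound for 30 min, then aliquots were heated for 3 min across 48°C-58°C, pooled, and extracted in PBS containing 0.5% NP-40 at 4°C. The supernatant after 21,000xg for 90 min was taken as soluble protein and measured by TMTpro 16plex LC-MS/MS with channel sums equalised. Thermal stability is reported relative to control samples, with values from duplicates. Fold changes are given on a log2 scale.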

[2] = compound: C/C(=N\NC(=O)C1=CC(=CC=C1)S(=O)(=O)N2CCOCC2)/C3=C(C=CC(=C3)Cl)O
In short: as §1

[3] = compound: C1=CC(=C(C=C1Cl)C2=NC3=NC=CN=C3C(=N2)NC4=CC=NC=C4)F
In short: as §1

[4] = compound: C1=CC(=CC=C1C2=NC3=C(N2)C=C(C=C3)C(=O)N)OC4=CC=C(C=C4)Cl
In short: as §1

[5] = compound: C1=CC2=C(C=CC(=C2)/C=C\3/C(=O)NC(=NCC4=CC=CS4)S3)N=C1
In short: as §1

[6] = compound: C1=CC2=NC=CN=C2C=C1/C=C/3\C(=O)NC(=O)S3
In short: as §1

[7] = compound: C1=CC=C(C=C1)C2=NC(=C(N2)C3=CC=NC=C3)C4=CC(=C(C=C4)Cl)O
In short: as §1

[8] = compound: C1=CC=C2C(=C1)C3=NNC4=CC=CC(=C43)C2=O
In short: as §1

[9] = compound: C1CCN(C1)C(=O)NC2=CC=CC(=C2)NC3=NC=C(C(=N3)NCCC4=CN=CN4)Br
In short: as §1

[10] = compound: C1CN(CCC1(CC2=CC=C(C=C2)Cl)N)C3=NC=NC4=C3C=CN4
In short: as §1

[11] = compound: C1COCCN1CCN2C3=CC=CC=C3N=C2NC(=O)C4=CC(=CC=C4)[N+](=O)[O-] [IRAK-1-4 Inhibitor I]
In short: as §1

[12] = compound: C=CC(=O)N1CCC[C@@H](n2nc(-c3ccc(Oc4ccccc4)cc3)c3c(N)ncnc32)C1 [ibrutinib]
In short: as §1

[13] = compound: CC(=O)c1cnc2ccc(-c3cc(Cl)c(O)c(Cl)c3)nc2c1N[C@H]1CC[C@H](CN(C)C)CC1
In short: as §1

[14] = compound: CC(C)(C)Cn1c(N)nc2ccc(-c3[nH]c(C(C)(C)C)nc3-c3ccc(F)cc3)nc21 [ralimetinib]
In short: as §1

[15] = compound: CC(C)(O)CC(=O)NCCn1ccc2ncnc(Nc3ccc(Oc4cccc(C(F)(F)F)c4)c(Cl)c3)c21
In short: as §1

[16] = compound: CC(C)C1=C2N=C(C=C(N2N=C1)NCC3=CC=CC=C3)NCCCCCCN
In short: as §1

[17] = compound: CC(C)C[C@@H](C=O)NC(=O)[C@H](CC(C)C)NC(=O)[C@H](CC(C)C)NC(=O)OCc1ccccc1
In short: as §1

[18] = compound: CC(C)N(C[C@H]1O[C@@H](n2cnc3c(N)ncnc32)[C@H](O)[C@@H]1O)[C@H]1C[C@@H](CCc2nc3cc(C(C)(C)C)ccc3[nH]2)C1 [pinometostat]
In short: as §1

[19] = compound: CC1=C(C2=C(C=C1)C(=O)C3=CC=CC=C3N2CCCN)C
In short: as §1

[20] = compound: CC1=C(C(CC(=O)N1)C2=CC=C(C=C2)C(F)(F)F)C(=O)NC3=C(C=C4C(=C3)C=NN4)F
In short: as §1

Target	log2 fold change [1]	log2 fold change [2]	log2 fold change [3]	log2 fold change [4]	log2 fold change [5]	log2 fold change [6]	log2 fold change [7]	log2 fold change [8]	log2 fold change [9]	log2 fold change [10]	log2 fold change [11]	log2 fold change [12]	log2 fold change [13]	log2 fold change [14]	log2 fold change [15]	log2 fold change [16]	log2 fold change [17]	log2 fold change [18]	log2 fold change [19]	log2 fold change [20]
KPNB1 (UniProt Q14974)	inactive: -0.001	inactive: 0.075	inactive: -0.03	inactive: -0.036	inactive: -0.028	inactive: 0.029	inactive: -0.049	inactive: -0.016	inactive: -0.034	inactive: -0.136	inactive: -0.079	inactive: -0.041	inactive: 0.033	inactive: 0.042	inactive: -0.036	active: -0.355	inactive: 0.035	inactive: 0.113	inactive: -0.038	–
KIF11 (UniProt P52732)	inactive: 0.042	inactive: 0.032	inactive: -0.106	inactive: -0.058	inactive: 0.038	inactive: 0.012	inactive: -0.168	inactive: 0.011	inactive: -0.017	inactive: -0.158	inactive: -0.097	inactive: -0.049	inactive: 0.063	inactive: 0.045	inactive: -0.024	inactive: -0.229	inactive: 0.04	inactive: 0.188	inactive: -0.014	–
KIF15 (UniProt Q9NS87)	inactive: 0.02	inactive: -0.042	inactive: -0.326	inactive: -0.087	inactive: -0.007	inactive: -0.074	inactive: 0.007	inactive: -0.105	inactive: -0.076	inactive: -0.094	inactive: -0.072	inactive: 0.001	inactive: 0.211	inactive: 0.21	inactive: -0.001	inactive: -0.098	inactive: 0.146	inactive: 0.165	inactive: 0.02	–
IWS1 (UniProt Q96ST2)	inactive: 0.029	inactive: 0.029	inactive: 0.091	inactive: 0	inactive: -0.033	inactive: 0.022	inactive: -0.013	inactive: -0.077	inactive: -0.067	inactive: -0.033	inactive: -0.026	inactive: -0.027	active: 0.492	inactive: -0.04	inactive: -0.09	inactive: 0.166	inactive: -0.04	inactive: 0.014	active: -0.301	–
KIF3A (UniProt Q9Y496)	inactive: -0.222	inactive: -0.06	inactive: -0.069	inactive: -0.122	inactive: -0.049	inactive: 0.034	inactive: -0.062	inactive: -0.025	inactive: -0.011	inactive: -0.067	inactive: 0.04	inactive: -0.016	inactive: 0.034	inactive: 0.085	inactive: -0.151	inactive: -0.336	inactive: -0.065	inactive: 0.051	inactive: -0.081	–
KIAA1143 (UniProt Q96AT1)	inactive: 0.006	inactive: -0.152	inactive: -0.149	inactive: 0.024	inactive: 0.06	inactive: -0.033	inactive: 0.026	inactive: -0.137	inactive: 0.038	inactive: 0.053	inactive: 0.087	inactive: 0.025	inactive: 0.148	inactive: -0.002	inactive: 0.046	inactive: 0.058	inactive: 0.043	inactive: 0.009	inactive: -0.047	inactive: 0.011
IVNS1ABP (UniProt Q9Y6Y0)	inactive: 0.001	inactive: 0.044	inactive: -0.085	inactive: 0.073	inactive: -0.002	inactive: -0.248	inactive: 0.052	inactive: 0.291	inactive: -0.03	inactive: -0.083	inactive: -0.051	inactive: 0.107	inactive: 0.038	inactive: 0.05	inactive: -0.031	inactive: -0.217	inactive: 0.153	inactive: 0.097	inactive: 0.029	inactive: 0.042
KEL (UniProt P23276)	inactive: 0.011	inactive: 0.042	inactive: 0.008	inactive: 0.13	inactive: -0.005	inactive: 0.147	inactive: -0.029	inactive: -0.067	inactive: -0.013	inactive: -0.001	inactive: -0.001	inactive: 0.052	inactive: -0.028	inactive: -0.011	inactive: 0.054	inactive: 0.025	inactive: -0.102	inactive: -0.02	inactive: 0.041	–
KHDC4 (UniProt Q7Z7F0)	inactive: -0.005	inactive: 0.14	inactive: 0.009	inactive: -0.058	inactive: 0.089	inactive: 0.084	inactive: 0.074	inactive: -0.041	inactive: -0.042	inactive: 0.025	inactive: 0.034	inactive: 0.025	inactive: 0.003	inactive: 0.012	inactive: -0.201	inactive: -0.009	inactive: 0.015	inactive: -0.001	inactive: 0.021	–
KCTD10 (UniProt Q9H3F6)	inactive: -0.041	inactive: 0.159	inactive: -0.051	inactive: 0.014	inactive: -0.021	inactive: 0.049	inactive: -0.171	inactive: 0.045	inactive: -0.027	inactive: -0.055	inactive: 0.01	inactive: 0.024	inactive: -0.037	inactive: -0.049	inactive: 0.043	active: 0.277	inactive: -0.02	inactive: -0.021	inactive: -0.034	–
KCTD2 (UniProt Q14681)	inactive: 0.177	inactive: -0.154	inactive: -0.125	inactive: -0.126	inactive: 0.158	inactive: -0.062	inactive: 0.055	inactive: -0.106	inactive: 0.26	inactive: -0.005	inactive: -0.03	inactive: 0.058	inactive: -0.054	inactive: 0	inactive: -0.015	inactive: 0.016	inactive: 0.171	inactive: 0.052	inactive: -0.028	–
KIDINS220 (UniProt Q9ULH0)	inactive: -0.028	inactive: -0.01	inactive: 0.023	inactive: 0.054	inactive: -0.014	inactive: 0.006	inactive: 0.007	inactive: -0.066	inactive: -0.033	inactive: 0.034	inactive: 0.008	inactive: 0.022	inactive: -0.045	inactive: -0.02	inactive: 0.028	inactive: 0.098	inactive: 0	inactive: 0.008	inactive: 0.046	inactive: -0.03
KAZN isoform 3 (UniProt Q674X7)	inactive: 0.059	inactive: 0.002	inactive: 0.018	inactive: 0.021	inactive: -0.005	inactive: -0.012	inactive: -0.008	inactive: -0.022	inactive: -0.014	inactive: 0.025	inactive: -0.059	inactive: -0.005	inactive: -0.019	inactive: -0.027	inactive: 0.098	inactive: 0.091	inactive: -0.027	inactive: -0.05	inactive: 0.043	inactive: 0.029
KDM1A isoform 2 (UniProt O60341)	inactive: 0.059	inactive: 0.039	inactive: 0.006	inactive: -0.028	inactive: 0.075	inactive: -0.015	inactive: 0.059	inactive: -0.026	inactive: -0.03	inactive: -0.069	inactive: -0.014	inactive: 0.014	inactive: -0.123	inactive: 0.175	inactive: -0.111	inactive: -0.041	inactive: 0.031	inactive: 0.046	inactive: -0.05	–
KPNA2 (UniProt P52292)	inactive: 0.011	inactive: -0.033	inactive: -0.479	inactive: 0	inactive: -0.107	inactive: 0.066	inactive: -0.008	inactive: -0.026	inactive: -0.076	inactive: -0.092	inactive: -0.152	inactive: -0.058	inactive: 0.121	inactive: 0.239	inactive: 0.055	inactive: -0.246	inactive: 0.243	inactive: 0.46	inactive: -0.114	inactive: -0.012

Part of the list above, set out differently:
Target,log2 fold change [1],log2 fold change [2],log2 fold change [3],log2 fold change [4],log2 fold change [5],log2 fold change [6],log2 fold change [7],log2 fold change [8],log2 fold change [9],log2 fold change [10],log2 fold change [11],log2 fold change [12],log2 fold change [13],log2 fold change [14],log2 fold change [15],log2 fold change [16],log2 fold change [17],log2 fold change [18],log2 fold change [19],log2 fold change [20]
KIF11 (UniProt P52732),inactive: 0.042,inactive: 0.032,inactive: -0.106,inactive: -0.058,inactive: 0.038,inactive: 0.012,inactive: -0.168,inactive: 0.011,inactive: -0.017,inactive: -0.158,inactive: -0.097,inactive: -0.049,inactive: 0.063,inactive: 0.045,inactive: -0.024,inactive: -0.229,inactive: 0.04,inactive: 0.188,inactive: -0.014,–
KIF15 (UniProt Q9NS87),inactive: 0.02,inactive: -0.042,inactive: -0.326,inactive: -0.087,inactive: -0.007,inactive: -0.074,inactive: 0.007,inactive: -0.105,inactive: -0.076,inactive: -0.094,inactive: -0.072,inactive: 0.001,inactive: 0.211,inactive: 0.21,inactive: -0.001,inactive: -0.098,inactive: 0.146,inactive: 0.165,inactive: 0.02,–
